# From the supplement of paper PMC10849652
# By UniProt entry, the sequences of proteins in these tests, tags left out. Where a name states a change or a piece, a line headed by the entry shows the natural chain unless it says otherwise.
# UniProt O75419: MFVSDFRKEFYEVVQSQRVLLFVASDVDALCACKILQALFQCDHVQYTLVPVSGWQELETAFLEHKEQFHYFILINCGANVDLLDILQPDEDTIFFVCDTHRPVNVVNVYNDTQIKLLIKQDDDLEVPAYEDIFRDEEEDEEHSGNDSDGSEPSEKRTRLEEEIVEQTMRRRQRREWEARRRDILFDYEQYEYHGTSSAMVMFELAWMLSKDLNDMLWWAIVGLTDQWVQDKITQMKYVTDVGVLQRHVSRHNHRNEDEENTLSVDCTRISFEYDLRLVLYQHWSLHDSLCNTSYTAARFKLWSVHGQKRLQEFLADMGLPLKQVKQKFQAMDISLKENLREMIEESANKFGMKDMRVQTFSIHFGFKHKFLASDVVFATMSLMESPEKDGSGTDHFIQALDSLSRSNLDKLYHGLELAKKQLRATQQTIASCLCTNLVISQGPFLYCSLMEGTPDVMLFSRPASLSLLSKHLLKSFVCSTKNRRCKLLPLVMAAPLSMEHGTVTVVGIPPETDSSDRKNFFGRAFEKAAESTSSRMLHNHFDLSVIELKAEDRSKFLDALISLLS
# UniProt Q9H3Q1: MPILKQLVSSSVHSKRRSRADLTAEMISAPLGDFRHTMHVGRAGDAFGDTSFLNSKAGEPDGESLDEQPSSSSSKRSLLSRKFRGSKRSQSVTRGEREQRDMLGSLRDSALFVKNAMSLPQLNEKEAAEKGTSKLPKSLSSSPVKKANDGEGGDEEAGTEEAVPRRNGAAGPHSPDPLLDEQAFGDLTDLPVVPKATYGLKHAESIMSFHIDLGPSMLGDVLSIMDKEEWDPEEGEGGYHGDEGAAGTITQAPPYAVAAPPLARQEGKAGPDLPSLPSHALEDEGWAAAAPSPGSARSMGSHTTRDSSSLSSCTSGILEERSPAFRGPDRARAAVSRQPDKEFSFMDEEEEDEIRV
# UniProt P60953, whole entry, looked up: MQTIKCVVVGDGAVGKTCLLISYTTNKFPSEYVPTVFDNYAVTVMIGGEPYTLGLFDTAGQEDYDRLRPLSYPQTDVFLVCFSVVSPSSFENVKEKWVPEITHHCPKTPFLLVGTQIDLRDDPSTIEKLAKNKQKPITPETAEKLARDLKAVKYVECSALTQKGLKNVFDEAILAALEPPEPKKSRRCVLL
# UniProt Q66GS9: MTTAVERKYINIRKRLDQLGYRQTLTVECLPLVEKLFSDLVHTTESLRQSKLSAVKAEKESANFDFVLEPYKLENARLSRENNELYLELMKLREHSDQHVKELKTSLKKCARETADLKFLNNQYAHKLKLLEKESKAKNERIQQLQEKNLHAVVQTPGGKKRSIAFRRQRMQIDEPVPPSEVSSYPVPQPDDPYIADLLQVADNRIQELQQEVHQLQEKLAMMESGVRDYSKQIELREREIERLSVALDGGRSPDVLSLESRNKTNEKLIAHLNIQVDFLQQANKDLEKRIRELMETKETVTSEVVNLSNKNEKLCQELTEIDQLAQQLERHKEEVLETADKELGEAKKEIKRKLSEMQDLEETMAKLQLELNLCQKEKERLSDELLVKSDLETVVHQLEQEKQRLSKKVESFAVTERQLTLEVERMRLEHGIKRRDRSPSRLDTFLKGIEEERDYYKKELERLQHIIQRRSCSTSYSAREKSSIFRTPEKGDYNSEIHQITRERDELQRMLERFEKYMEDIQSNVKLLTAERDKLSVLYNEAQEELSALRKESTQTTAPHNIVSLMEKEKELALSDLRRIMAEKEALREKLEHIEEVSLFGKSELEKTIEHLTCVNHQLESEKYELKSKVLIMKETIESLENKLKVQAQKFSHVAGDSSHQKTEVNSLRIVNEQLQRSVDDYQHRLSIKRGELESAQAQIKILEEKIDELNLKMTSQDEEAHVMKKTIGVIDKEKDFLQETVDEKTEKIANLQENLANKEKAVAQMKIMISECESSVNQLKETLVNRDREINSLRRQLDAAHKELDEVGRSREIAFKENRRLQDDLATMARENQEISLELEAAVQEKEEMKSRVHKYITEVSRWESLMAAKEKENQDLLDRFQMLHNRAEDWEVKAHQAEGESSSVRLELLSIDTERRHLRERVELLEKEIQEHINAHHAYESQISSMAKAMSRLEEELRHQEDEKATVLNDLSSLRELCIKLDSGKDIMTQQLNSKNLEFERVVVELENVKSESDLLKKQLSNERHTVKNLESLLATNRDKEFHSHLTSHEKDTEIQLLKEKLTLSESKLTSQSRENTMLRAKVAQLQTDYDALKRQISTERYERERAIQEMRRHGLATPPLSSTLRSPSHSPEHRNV
# UniProt O15182: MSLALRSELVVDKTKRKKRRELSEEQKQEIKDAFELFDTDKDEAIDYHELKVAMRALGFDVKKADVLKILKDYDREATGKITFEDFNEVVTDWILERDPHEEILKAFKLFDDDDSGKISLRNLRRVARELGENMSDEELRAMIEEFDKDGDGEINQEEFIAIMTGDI
# UniProt Q9UJX2, whole entry, looked up: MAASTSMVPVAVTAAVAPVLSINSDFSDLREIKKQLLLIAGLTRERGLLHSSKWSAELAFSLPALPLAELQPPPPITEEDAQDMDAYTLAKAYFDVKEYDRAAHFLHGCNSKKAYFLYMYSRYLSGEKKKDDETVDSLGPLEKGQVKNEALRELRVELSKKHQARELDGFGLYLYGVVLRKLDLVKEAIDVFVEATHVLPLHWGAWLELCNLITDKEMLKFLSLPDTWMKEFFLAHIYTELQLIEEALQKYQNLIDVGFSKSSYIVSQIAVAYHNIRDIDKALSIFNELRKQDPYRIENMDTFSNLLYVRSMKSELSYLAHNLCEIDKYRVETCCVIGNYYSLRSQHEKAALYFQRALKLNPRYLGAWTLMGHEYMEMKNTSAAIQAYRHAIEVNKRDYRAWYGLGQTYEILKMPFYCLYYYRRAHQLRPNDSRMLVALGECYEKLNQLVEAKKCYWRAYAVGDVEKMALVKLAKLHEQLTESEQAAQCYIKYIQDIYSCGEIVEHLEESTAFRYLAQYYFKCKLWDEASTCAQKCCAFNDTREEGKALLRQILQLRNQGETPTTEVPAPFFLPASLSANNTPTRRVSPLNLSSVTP
# UniProt Q96FF9: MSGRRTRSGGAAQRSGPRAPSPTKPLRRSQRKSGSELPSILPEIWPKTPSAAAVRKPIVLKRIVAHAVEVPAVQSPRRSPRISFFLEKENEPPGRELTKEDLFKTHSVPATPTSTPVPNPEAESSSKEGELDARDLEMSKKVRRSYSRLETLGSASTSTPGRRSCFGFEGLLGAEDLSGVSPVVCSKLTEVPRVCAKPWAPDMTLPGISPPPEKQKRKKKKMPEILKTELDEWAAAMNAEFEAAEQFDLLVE
# UniProt Q8TAP6: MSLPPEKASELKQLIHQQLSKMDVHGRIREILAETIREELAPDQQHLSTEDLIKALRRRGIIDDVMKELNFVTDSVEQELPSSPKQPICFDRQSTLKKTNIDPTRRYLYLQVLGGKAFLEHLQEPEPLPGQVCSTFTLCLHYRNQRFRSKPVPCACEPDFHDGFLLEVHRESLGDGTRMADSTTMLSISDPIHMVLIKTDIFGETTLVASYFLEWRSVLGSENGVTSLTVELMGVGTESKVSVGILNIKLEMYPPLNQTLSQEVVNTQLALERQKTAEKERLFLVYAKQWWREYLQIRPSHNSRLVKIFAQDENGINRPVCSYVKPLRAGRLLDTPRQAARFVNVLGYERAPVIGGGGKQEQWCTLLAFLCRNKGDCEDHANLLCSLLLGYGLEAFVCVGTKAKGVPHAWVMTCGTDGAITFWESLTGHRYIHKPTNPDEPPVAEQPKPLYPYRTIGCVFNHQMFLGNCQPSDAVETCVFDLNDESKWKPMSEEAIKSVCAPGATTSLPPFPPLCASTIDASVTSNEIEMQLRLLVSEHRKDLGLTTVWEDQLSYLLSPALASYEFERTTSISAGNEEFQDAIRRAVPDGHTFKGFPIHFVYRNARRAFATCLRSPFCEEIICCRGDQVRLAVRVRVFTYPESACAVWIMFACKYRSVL
# UniProt Q5SW79: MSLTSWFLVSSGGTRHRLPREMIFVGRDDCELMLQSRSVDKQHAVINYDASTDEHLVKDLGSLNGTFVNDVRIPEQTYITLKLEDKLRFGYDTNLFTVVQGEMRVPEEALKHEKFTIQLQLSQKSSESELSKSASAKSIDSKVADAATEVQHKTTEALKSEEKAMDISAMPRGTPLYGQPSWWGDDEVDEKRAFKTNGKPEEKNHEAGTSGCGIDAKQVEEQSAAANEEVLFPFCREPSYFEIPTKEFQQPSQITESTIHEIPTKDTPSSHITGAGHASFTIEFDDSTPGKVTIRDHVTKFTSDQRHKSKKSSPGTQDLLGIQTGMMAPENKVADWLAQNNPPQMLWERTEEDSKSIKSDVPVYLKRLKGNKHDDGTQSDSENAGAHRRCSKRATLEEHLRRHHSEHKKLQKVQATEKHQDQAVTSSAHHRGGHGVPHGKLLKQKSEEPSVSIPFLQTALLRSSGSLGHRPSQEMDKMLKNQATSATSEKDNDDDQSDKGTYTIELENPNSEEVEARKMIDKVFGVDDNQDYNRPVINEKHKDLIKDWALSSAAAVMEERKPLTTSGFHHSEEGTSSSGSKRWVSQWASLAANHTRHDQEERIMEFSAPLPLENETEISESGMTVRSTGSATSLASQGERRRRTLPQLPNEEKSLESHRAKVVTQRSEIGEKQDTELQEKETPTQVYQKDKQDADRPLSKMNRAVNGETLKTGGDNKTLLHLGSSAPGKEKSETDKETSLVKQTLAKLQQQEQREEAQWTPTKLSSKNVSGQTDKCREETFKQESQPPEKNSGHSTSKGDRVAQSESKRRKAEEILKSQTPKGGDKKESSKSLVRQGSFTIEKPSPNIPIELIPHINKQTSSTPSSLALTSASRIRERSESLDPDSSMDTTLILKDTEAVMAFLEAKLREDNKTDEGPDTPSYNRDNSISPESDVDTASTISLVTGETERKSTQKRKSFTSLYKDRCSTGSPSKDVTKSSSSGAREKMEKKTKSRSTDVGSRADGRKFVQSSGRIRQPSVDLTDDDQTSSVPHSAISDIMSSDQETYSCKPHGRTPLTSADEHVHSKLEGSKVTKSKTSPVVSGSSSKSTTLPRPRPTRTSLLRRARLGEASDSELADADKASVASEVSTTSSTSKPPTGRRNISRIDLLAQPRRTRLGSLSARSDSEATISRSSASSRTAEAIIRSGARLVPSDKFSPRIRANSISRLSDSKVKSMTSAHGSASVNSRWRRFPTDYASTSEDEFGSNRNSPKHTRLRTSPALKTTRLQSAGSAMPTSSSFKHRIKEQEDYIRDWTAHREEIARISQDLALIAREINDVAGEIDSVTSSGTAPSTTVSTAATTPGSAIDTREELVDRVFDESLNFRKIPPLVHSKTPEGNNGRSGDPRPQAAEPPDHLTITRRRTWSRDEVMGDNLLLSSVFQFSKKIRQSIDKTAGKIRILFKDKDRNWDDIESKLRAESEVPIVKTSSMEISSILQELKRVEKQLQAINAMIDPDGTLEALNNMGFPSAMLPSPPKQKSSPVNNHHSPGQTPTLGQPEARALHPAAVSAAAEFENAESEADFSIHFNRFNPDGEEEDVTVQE
# UniProt Q9NRR3: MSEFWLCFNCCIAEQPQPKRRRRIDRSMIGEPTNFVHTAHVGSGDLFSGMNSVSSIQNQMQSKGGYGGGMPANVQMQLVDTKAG
# UniProt Q9UEE9, whole entry, looked up: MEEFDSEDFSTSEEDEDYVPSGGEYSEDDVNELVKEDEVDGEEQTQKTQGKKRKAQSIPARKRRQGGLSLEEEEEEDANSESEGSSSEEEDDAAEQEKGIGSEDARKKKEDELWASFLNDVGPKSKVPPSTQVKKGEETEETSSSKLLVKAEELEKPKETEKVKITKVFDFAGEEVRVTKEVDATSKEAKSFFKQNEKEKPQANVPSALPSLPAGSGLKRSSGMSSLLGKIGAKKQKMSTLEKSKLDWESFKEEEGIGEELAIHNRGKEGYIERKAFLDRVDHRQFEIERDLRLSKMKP
# UniProt Q6ZMG9: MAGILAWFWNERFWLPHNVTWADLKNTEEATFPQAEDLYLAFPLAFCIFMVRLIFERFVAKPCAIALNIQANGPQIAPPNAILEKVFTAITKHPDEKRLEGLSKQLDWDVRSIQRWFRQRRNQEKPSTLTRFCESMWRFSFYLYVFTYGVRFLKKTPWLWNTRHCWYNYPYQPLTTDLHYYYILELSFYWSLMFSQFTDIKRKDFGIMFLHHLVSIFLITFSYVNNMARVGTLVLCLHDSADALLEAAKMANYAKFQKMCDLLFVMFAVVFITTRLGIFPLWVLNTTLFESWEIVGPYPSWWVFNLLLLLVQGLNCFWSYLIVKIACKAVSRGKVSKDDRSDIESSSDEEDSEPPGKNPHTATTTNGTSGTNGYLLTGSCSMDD
# UniProt O14519: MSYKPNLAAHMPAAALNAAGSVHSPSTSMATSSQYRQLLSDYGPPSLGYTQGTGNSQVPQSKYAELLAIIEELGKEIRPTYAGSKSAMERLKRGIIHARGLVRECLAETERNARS
# The list shows a part of the results.
# Assays:
# Test in all cases: log2 fold change, soluble protein after heating vs DMSO (PISA); higher = thermal stabilisation; K562 lysate, 10 uM; active = over 0.2 and 3.5 SD of the protein, either way, in both replicates (recomputed)
# [1] = compound: C#Cc1cccc(Nc2ncnc3cc(OCCOC)c(OCCOC)cc23)c1 [erlotinib]
# Summary of the method: (§1)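 Soluble protein was defined as the supernatant remaining after 21,000xg for 90 min, following pooling of heated aliquots and adjustment to 0.5% NP-40 at 4°C. Before that, crude K562 extract at 1 mg/mL protein in PBS pH 7.4 with 1 mM MgCl2 was treated with 10 μM compound for 30 min and heated for 3 min across 48°C-58°C. Quantification used TMTpro 16plex LC-MS/MS with channel sums equalised, and values are log-two fold changes in thermal stability relative to solvent controls from duplicates.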
# [2] = compound: C/C(=N\NC(=O)C1=CC(=CC=C1)S(=O)(=O)N2CCOCC2)/C3=C(C=CC(=C3)Cl)O
# Summary of the method: as §1
# [3] = compound: C1=CC(=CC=C1C2=NC3=C(N2)C=C(C=C3)C(=O)N)OC4=CC=C(C=C4)Cl
# Summary of the method: as §1
# [4] = compound: C1=CC2=C(C=CC(=C2)/C=C\3/C(=O)NC(=NCC4=CC=CS4)S3)N=C1
# Summary of the method: as §1
# [5] = compound: C1=CC2=NC=CN=C2C=C1/C=C/3\C(=O)NC(=O)S3
# Summary of the method: as §1
# [6] = compound: C1=CC=C(C=C1)C2=NC(=C(N2)C3=CC=NC=C3)C4=CC(=C(C=C4)Cl)O
# Summary of the method: as §1
# [7] = compound: C1=CC=C2C(=C1)C3=NNC4=CC=CC(=C43)C2=O
# Summary of the method: as §1
# [8] = compound: C1CCN(C1)C(=O)NC2=CC=CC(=C2)NC3=NC=C(C(=N3)NCCC4=CN=CN4)Br
# Summary of the method: as §1
# [9] = compound: C1CN(CCC1(CC2=CC=C(C=C2)Cl)N)C3=NC=NC4=C3C=CN4
# Summary of the method: as §1
# [10] = compound: C1COCCN1CCN2C3=CC=CC=C3N=C2NC(=O)C4=CC(=CC=C4)[N+](=O)[O-] [IRAK-1-4 Inhibitor I]
# Summary of the method: as §1
# [11] = compound: C=CC(=O)N1CCC[C@@H](n2nc(-c3ccc(Oc4ccccc4)cc3)c3c(N)ncnc32)C1 [ibrutinib]
# Summary of the method: as §1
# [12] = compound: CC(=O)c1cnc2ccc(-c3cc(Cl)c(O)c(Cl)c3)nc2c1N[C@H]1CC[C@H](CN(C)C)CC1
# Summary of the method: as §1
# [13] = compound: CC(C)(C)Cn1c(N)nc2ccc(-c3[nH]c(C(C)(C)C)nc3-c3ccc(F)cc3)nc21 [ralimetinib]
# Summary of the method: as §1
# [14] = compound: CC(C)(O)CC(=O)NCCn1ccc2ncnc(Nc3ccc(Oc4cccc(C(F)(F)F)c4)c(Cl)c3)c21
# Summary of the method: as §1
# [15] = compound: CC(C)C1=C2N=C(C=C(N2N=C1)NCC3=CC=CC=C3)NCCCCCCN
# Summary of the method: as §1
# [16] = compound: CC1=C(C(CC(=O)N1)C2=CC=C(C=C2)C(F)(F)F)C(=O)NC3=C(C=C4C(=C3)C=NN4)F
# Summary of the method: as §1
# [17] = compound: CC1=C(C2=C(C=C1)C(=O)C3=CC=CC=C3N2CCCN)C
# Summary of the method: as §1
# [18] = compound: CC1=C(C=C(C=C1)NC(=O)C2=CC(=CC=C2)C(C)(C)C#N)NC3=CC4=C(C=C3)N=CN(C4=O)C
# Summary of the method: as §1
# [19] = compound: CC1=C(C=C(C=C1)NC(=O)C2=CC(=CC=C2)N(C)C)NC(=O)C3=CC=C(C=C3)O
# Summary of the method: as §1
# [20] = compound: CC1=CC=C(C=C1)SC2=C3C=C(SC3=CN=C2)C(=O)N
# Summary of the method: as §1
Target,log2 fold change [1],log2 fold change [2],log2 fold change [3],log2 fold change [4],log2 fold change [5],log2 fold change [6],log2 fold change [7],log2 fold change [8],log2 fold change [9],log2 fold change [10],log2 fold change [11],log2 fold change [12],log2 fold change [13],log2 fold change [14],log2 fold change [15],log2 fold change [16],log2 fold change [17],log2 fold change [18],log2 fold change [19],log2 fold change [20]
CDC45 isoform 3 (UniProt O75419),inactive: 0.035,inactive: -0.008,inactive: -0.065,inactive: 0.029,inactive: -0.005,inactive: -0.022,inactive: -0.017,inactive: -0.014,inactive: -0.004,inactive: 0.066,inactive: 0.034,inactive: 0.045,inactive: 0.014,inactive: 0.021,inactive: -0.005,inactive: 0.036,inactive: -0.006,inactive: -0.032,inactive: 0.031,inactive: -0.004
CEP250 (UniProt Q9BV73),inactive: 0,inactive: -0.009,inactive: -0.014,inactive: -0.021,inactive: -0.012,inactive: 0.024,inactive: 0.007,inactive: 0.181,inactive: 0.091,inactive: -0.019,inactive: 0.073,inactive: 0,inactive: -0.01,inactive: -0.062,inactive: -0.035,inactive: -0.033,inactive: -0.052,inactive: -0.001,inactive: 0.015,inactive: -0.083
CDC42EP4 (UniProt Q9H3Q1),inactive: 0.025,inactive: -0.053,inactive: -0.005,inactive: 0.017,inactive: -0.109,inactive: 0.007,inactive: 0.044,inactive: -0.069,inactive: 0.054,inactive: -0.055,inactive: 0.07,inactive: -0.014,inactive: 0.034,inactive: -0.006,inactive: 0.01,inactive: 0.024,inactive: 0.026,inactive: 0.155,inactive: -0.018,inactive: -0.035
CDC42 (UniProt P60953),inactive: -0.079,inactive: 0.093,inactive: 0.02,inactive: 0.034,inactive: -0.039,inactive: 0.015,inactive: 0.064,inactive: 0,inactive: -0.023,inactive: -0.013,inactive: 0.04,inactive: 0,inactive: -0.031,inactive: 0.018,inactive: 0.044,inactive: -0.014,inactive: -0.045,inactive: 0.008,inactive: -0.029,inactive: 0.007
CEP135 (UniProt Q66GS9),inactive: 0.034,inactive: -0.029,inactive: 0.065,inactive: -0.047,inactive: 0.031,inactive: 0.002,inactive: 0.024,inactive: -0.035,inactive: 0.042,inactive: 0.02,inactive: 0.001,inactive: -0.009,inactive: -0.012,inactive: -0.022,inactive: 0.026,inactive: -0.014,inactive: 0.026,inactive: 0.087,inactive: 0.037,inactive: -0.016
CENPF (UniProt P49454),inactive: 0.008,inactive: 0.014,inactive: 0.004,inactive: 0.033,inactive: -0.032,inactive: 0.014,inactive: -0.013,inactive: -0.005,inactive: 0.047,inactive: -0.002,inactive: 0.022,inactive: -0.04,inactive: 0.016,inactive: -0.012,inactive: -0.016,inactive: 0.012,inactive: -0.006,inactive: 0.006,inactive: -0.006,inactive: -0.03
CELF1 isoform 4 (UniProt Q92879),inactive: -0.101,inactive: -0.039,inactive: 0.013,inactive: 0.055,inactive: 0,inactive: -0.031,inactive: -0.03,inactive: -0.002,inactive: -0.043,inactive: -0.045,inactive: 0.027,inactive: -0.027,inactive: 0.034,inactive: -0.004,inactive: 0.033,inactive: 0.072,inactive: 0.016,active: -0.331,inactive: 0,inactive: 0.025
CETN3 (UniProt O15182),inactive: 0.003,inactive: -0.048,inactive: 0.019,inactive: -0.053,inactive: -0.095,inactive: 0.001,inactive: -0.01,inactive: 0.013,inactive: -0.031,inactive: 0.052,inactive: 0.046,inactive: 0.02,inactive: 0.047,inactive: -0.095,inactive: -0.037,inactive: 0.019,inactive: 0.036,inactive: -0.102,inactive: 0.002,inactive: -0.012
CDC23 (UniProt Q9UJX2),inactive: -0.011,inactive: -0.029,inactive: -0.017,inactive: -0.002,inactive: -0.01,inactive: -0.001,inactive: 0.005,inactive: 0.005,inactive: -0.005,inactive: 0.011,inactive: 0.022,inactive: 0.004,inactive: -0.002,inactive: -0.017,inactive: 0.006,inactive: -0.004,inactive: 0.016,inactive: 0.01,inactive: 0.002,inactive: 0.035
CDCA5 (UniProt Q96FF9),inactive: -0.026,inactive: -0.155,inactive: -0.025,inactive: 0,inactive: -0.066,inactive: 0.016,inactive: -0.16,inactive: -0.031,inactive: -0.006,inactive: 0.016,inactive: 0.046,inactive: -0.042,inactive: 0.04,inactive: 0.072,inactive: 0.049,inactive: -0.055,inactive: -0.024,inactive: 0.232,inactive: -0.047,inactive: 0.056
CEP76 (UniProt Q8TAP6),inactive: 0.005,inactive: -0.033,inactive: 0.012,inactive: 0.053,inactive: -0.072,inactive: -0.003,inactive: 0.052,inactive: -0.002,inactive: 0,inactive: 0.056,inactive: -0.004,inactive: 0.081,inactive: 0.019,inactive: 0.003,inactive: -0.002,inactive: -0.019,inactive: -0.063,inactive: 0.051,inactive: 0,inactive: -0.005
CEP170 (UniProt Q5SW79),inactive: 0.01,inactive: 0.011,inactive: 0.007,inactive: -0.136,inactive: -0.212,inactive: -0.021,inactive: -0.141,inactive: -0.05,inactive: 0.008,inactive: -0.021,inactive: 0,inactive: 0.004,inactive: 0.026,inactive: -0.002,inactive: 0.033,inactive: 0.001,inactive: -0.048,inactive: 0.017,inactive: 0.033,inactive: 0.003
CDC42SE2 (UniProt Q9NRR3),inactive: 0,inactive: 0.018,inactive: -0.014,inactive: 0.122,inactive: -0.036,inactive: 0.065,inactive: -0.119,inactive: 0.051,inactive: 0.063,inactive: 0.053,inactive: 0.042,inactive: 0.023,inactive: -0.01,inactive: -0.017,inactive: 0.018,inactive: -0.099,inactive: -0.07,inactive: 0.011,inactive: -0.036,inactive: 0.004
CFDP1 (UniProt Q9UEE9),inactive: -0.027,inactive: -0.023,inactive: 0.067,inactive: -0.024,inactive: -0.02,inactive: -0.004,inactive: 0.033,inactive: -0.03,inactive: 0.011,inactive: -0.017,inactive: 0.032,inactive: 0.014,inactive: 0.051,inactive: -0.015,inactive: -0.052,inactive: -0.014,inactive: -0.027,inactive: 0.021,inactive: 0.027,inactive: -0.012
CERS6 isoform 2 (UniProt Q6ZMG9),inactive: 0.079,inactive: -0.007,inactive: 0.013,inactive: 0.044,inactive: -0.014,inactive: -0.109,inactive: -0.037,inactive: -0.007,inactive: -0.094,inactive: 0.066,inactive: 0.061,inactive: -0.093,inactive: 0.059,inactive: -0.035,inactive: 0,inactive: -0.029,inactive: -0.066,inactive: 0.016,inactive: 0.097,inactive: -0.04
CDK2AP1 (UniProt O14519),inactive: 0.039,inactive: -0.082,inactive: -0.066,inactive: 0.024,inactive: 0.022,inactive: -0.085,inactive: -0.032,inactive: 0.129,inactive: 0.079,inactive: 0.011,inactive: 0.284,inactive: -0.065,inactive: -0.031,inactive: -0.059,inactive: 0.08,inactive: -0.114,inactive: 0.08,inactive: 0.064,inactive: 0.119,inactive: 0.104

# Two records picked at random from those above, as already listed:
Target,log2 fold change [1],log2 fold change [2],log2 fold change [3],log2 fold change [4],log2 fold change [5],log2 fold change [6],log2 fold change [7],log2 fold change [8],log2 fold change [9],log2 fold change [10],log2 fold change [11],log2 fold change [12],log2 fold change [13],log2 fold change [14],log2 fold change [15],log2 fold change [16],log2 fold change [17],log2 fold change [18],log2 fold change [19],log2 fold change [20]
CFDP1 (UniProt Q9UEE9),inactive: -0.027,inactive: -0.023,inactive: 0.067,inactive: -0.024,inactive: -0.02,inactive: -0.004,inactive: 0.033,inactive: -0.03,inactive: 0.011,inactive: -0.017,inactive: 0.032,inactive: 0.014,inactive: 0.051,inactive: -0.015,inactive: -0.052,inactive: -0.014,inactive: -0.027,inactive: 0.021,inactive: 0.027,inactive: -0.012
CDC23 (UniProt Q9UJX2),inactive: -0.011,inactive: -0.029,inactive: -0.017,inactive: -0.002,inactive: -0.01,inactive: -0.001,inactive: 0.005,inactive: 0.005,inactive: -0.005,inactive: 0.011,inactive: 0.022,inactive: 0.004,inactive: -0.002,inactive: -0.017,inactive: 0.006,inactive: -0.004,inactive: 0.016,inactive: 0.01,inactive: 0.002,inactive: 0.035
